Experimental findings from the supplement of paper PMC12542422 are described below.

Structures can show the parent of a compound that is named as a salt. ± gives the standard deviation of the averaged measurements. Some of the results follow. These are raw signals, not scaled to a control.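 HeLa cells imaged for ribosome-assembly readouts (ENP1 staining with or without export block, or inducible tagged ribosomal protein reporters); machine learning classified each cell's signal location against solvent (DMSO) controls. Hits exceeded the DMSO false-positive mean by five standard deviations, then were visually confirmed; three biological replicates.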

In assay [1] the test system is HeLa K (ENP1 immunofluorescence, +LMB). The assay is described as follows: fraction of cells with nucleolar or nucleolar/nucleoplasmic ENP1 signal (MainHitrate); higher = more cells with nucleolar/nuclear readout signal (for ENP1 -LMB: less RNAPI inhibition; for +LMB ENP1 and RP reporters: stronger nuclear/nucleolar retention, i.e. ribosome biogenesis defect). The note with it: concentration: 1 µM; treatment time: 6 h; ENP1 +LMB; leptomycin B: 20 nM, last 1.5 h.

The subject of assay [2] is HeLa K (ENP1 immunofluorescence, no LMB). The description is as above. The note with it: concentration: 1 µM; treatment time: 6 h; ENP1 -LMB; leptomycin B: none.
The next assay relates to HeLa RPS2-YFP reporter. Put plainly: fraction of reporter-positive cells with nuclear (nucleolar or nucleolar/nucleoplasmic) RPS2-YFP (MainHitrate); higher = more cells with nucleolar/nuclear readout signal (for ENP1 -LMB: less RNAPI inhibition; for +LMB ENP1 and RP reporters: stronger nuclear/nucleolar retention, i.e. ribosome biogenesis defect). As to conditions: concentration: 1 µM; treatment time: 6 h.

For a further assay, the system named is HeLa RPL29-GFP reporter. The assay is described as follows: fraction of reporter-positive cells with nuclear (nucleolar or nucleolar/nucleoplasmic) RPL29-GFP (MainHitrate); higher = more cells with nucleolar/nuclear readout signal (for ENP1 -LMB: less RNAPI inhibition; for +LMB ENP1 and RP reporters: stronger nuclear/nucleolar retention, i.e. ribosome biogenesis defect). The note with it: concentration: 1 µM; treatment time: 6 h.

For `N=C(N)NCCN1CCCCCCC1` [Guanethidine Sulfate], the fraction in assay [1] was 0.086 ± 0.077; in assay [2], 0.9975 ± 0.0043. The figures for the “fraction of reporter-positive cells with nuclear” value (“fraction … with nuclear” below) in the assay with HeLa RPS2-YFP reporter and in the assay on HeLa RPL29-GFP reporter were 0.18 ± 0.2 and 0.272 ± 0.22, respectively.
As for `Nc1ccn(C[C@@H](CO)OCP(=O)(O)O)c(=O)n1` [Cidofovir (Vistide)], the fraction in assay [1] amounted to 0.068 ± 0.048; in assay [2], 0.9973 ± 0.0046. For the same compound, the “fraction … with nuclear” value stood at 0.103 ± 0.082 with HeLa RPS2-YFP reporter and 0.242 ± 0.062 in the assay on HeLa RPL29-GFP reporter.
`CC(C)(Sc1cc(C(C)(C)C)c(O)c(C(C)(C)C)c1)Sc1cc(C(C)(C)C)c(O)c(C(C)(C)C)c1` [Probucol]: the fraction was determined as 0.111 ± 0.17 in assay [1] and 0.993 ± 0.012 in assay [2]. In addition, the “fraction … with nuclear” value in the assay with HeLa RPS2-YFP reporter stood at 0.113 ± 0.088; in the assay with HeLa RPL29-GFP reporter it was 0.23 ± 0.078.
For `COC(c1ccccc1)(c1ccccc1)[C@H](Oc1nc(C)cc(C)n1)C(=O)O` [Ambrisentan], in that order: 0.0479 ± 0.061, 0.9952 ± 0.0083, 0.0921 ± 0.076 and 0.189 ± 0.057.
For the compound `C#C[C@]1(O)CC[C@H]2[C@@H]3CCC4=CC(=O)CC[C@@H]4[C@H]3CC[C@@]21C` [norethindrone], the fraction in assay [1] came to 0.0473 ± 0.057; in assay [2] it was 0.988 ± 0.021. Also, the “fraction … with nuclear” value in the assay with HeLa RPS2-YFP reporter stood at 0.164 ± 0.15; in the assay with HeLa RPL29-GFP reporter, 0.209 ± 0.021.
For `N[C@@H](C(=O)N[C@@H]1C(=O)N2C(C(=O)O)=C(Cl)CS[C@H]12)c1ccccc1` [Cefaclor (Ceclor)], in that order: 0.0489 ± 0.032, 0.9987 ± 0.0023, 0.0826 ± 0.051 and 0.201 ± 0.043.
`Nc1nc2ccc(OC(F)(F)F)cc2s1` [Riluzole (Rilutek)]: the fraction in assay [1] was found to be 0.159 ± 0.15; in assay [2] it was 0.9975 ± 0.0043. The “fraction … with nuclear” value was 0.0877 ± 0.056 in the assay on HeLa RPS2-YFP reporter and 0.241 ± 0.079 in the assay with HeLa RPL29-GFP reporter.
As to `CC12CC3CC(C)(C1)CC(N)(C3)C2` [Memantine HCl (Namenda)], the fraction was 0.113 ± 0.15 in assay [1] and 0.99 ± 0.018 in assay [2]. Besides, the “fraction … with nuclear” value stood at 0.119 ± 0.049 in the assay on HeLa RPS2-YFP reporter and 0.221 ± 0.044 in the assay with HeLa RPL29-GFP reporter.
For the compound `CCN(CC)C(=O)/C(C#N)=C/c1cc(O)c(O)c([N+](=O)[O-])c1` [Entacapone], the fraction in assay [1] worked out at 0.0754 ± 0.087; in assay [2], 0.991 ± 0.015. In addition, the “fraction … with nuclear” value in the assay on HeLa RPS2-YFP reporter was 0.119 ± 0.1; with HeLa RPL29-GFP reporter it was 0.223 ± 0.055.
For the compound `CC1(C)O[C@@H]2C[C@H]3[C@@H]4C[C@H](F)C5=CC(=O)C=C[C@]5(C)[C@@]4(F)[C@@H](O)C[C@]3(C)[C@]2(C(=O)CO)O1` [Fluocinolone acetonide (Flucort-N)], the fraction in assay [1] was 0.0662 ± 0.092; in assay [2], 0.996 ± 0.007. Moreover, the entries for the “fraction … with nuclear” value in the assay on HeLa RPS2-YFP reporter and with HeLa RPL29-GFP reporter were 0.078 ± 0.046 and 0.289 ± 0.032, respectively.
As for `CCN(CC)CCCC(C)Nc1ccnc2cc(Cl)ccc12` (stereo not given) [Chloroquine Phosphate], the fraction in assay [1] came to 0.0472 ± 0.055; in assay [2], 0.989 ± 0.019. Moreover, the “fraction … with nuclear” value in the assay on HeLa RPS2-YFP reporter was found to be 0.0898 ± 0.068; with HeLa RPL29-GFP reporter, 0.186 ± 0.023.
For the compound `CCCc1ncc(C[n+]2ccccc2C)c(N)n1` [Amprolium HCl], the fraction in assay [1] stood at 0.0805 ± 0.12; in assay [2] it was 0.988 ± 0.02. The “fraction … with nuclear” value was 0.121 ± 0.1 in the assay with HeLa RPS2-YFP reporter and 0.216 ± 0.069 with HeLa RPL29-GFP reporter.
On the same counts, the results for `Fc1ccc([C@@H]2CCNC[C@H]2COc2ccc3c(c2)OCO3)cc1` [Paroxetine HCl] are 0.0695 ± 0.091, 0.992 ± 0.015, 0.122 ± 0.08 and 0.194 ± 0.042.
As to `CC(C)(C)NC(=O)[C@H]1CC[C@H]2[C@@H]3CC[C@H]4NC(=O)C=C[C@]4(C)[C@H]3CC[C@]12C` [Finasteride], the results for the fraction in assay [1] and in assay [2] were 0.0925 ± 0.047 and 0.9986 ± 0.0024, respectively. In addition, the “fraction … with nuclear” value with HeLa RPS2-YFP reporter is 0.0993 ± 0.072; with HeLa RPL29-GFP reporter, 0.22 ± 0.07.
On to `CCC[S+]([O-])c1ccc2[nH]c(NC(=O)OC)nc2c1` (stereo not given) [Albendazole Oxide (Ricobendazole)], for which the fraction in assay [1] turned out to be 0.0657 ± 0.074; in assay [2], 0.991 ± 0.015. Further, the entries for the “fraction … with nuclear” value in the assay on HeLa RPS2-YFP reporter and with HeLa RPL29-GFP reporter were 0.122 ± 0.062 and 0.245 ± 0.071, respectively.
Regarding `NC12CC3CC(CC(C3)C1)C2` [Amantadine hydrochloride (Symmetrel)], the values for the fraction in assay [1] and in assay [2] were 0.139 ± 0.22 and 0.985 ± 0.025, respectively. Besides, the “fraction … with nuclear” value came out at 0.137 ± 0.084 in the assay with HeLa RPS2-YFP reporter and 0.215 ± 0.07 with HeLa RPL29-GFP reporter.
Consider `CC(C)C(=O)Oc1ccc(CO)cc1[C@H](CCN(C(C)C)C(C)C)c1ccccc1` [Fesoterodine fumarate (Toviaz)], for which the fraction amounted to 0.16 ± 0.23 in assay [1] and 0.99 ± 0.018 in assay [2]. Moreover, the entries for the “fraction … with nuclear” value with HeLa RPS2-YFP reporter and with HeLa RPL29-GFP reporter were 0.115 ± 0.087 and 0.229 ± 0.054, respectively.
Turning to `O=C(O)c1cc(-c2ccccc2)nc2ccccc12` [Cinchophen], the fraction in assay [1] came to 0.0819 ± 0.12; in assay [2], 0.979 ± 0.036. Moreover, the “fraction … with nuclear” value in the assay on HeLa RPS2-YFP reporter is 0.113 ± 0.11; in the assay on HeLa RPL29-GFP reporter it was 0.226 ± 0.054.
Turning to `Cn1cnc([N+](=O)[O-])c1Sc1ncnc2[nH]cnc12` [Azathioprine (Azasan, Imuran)], the fraction was 0.0554 ± 0.027 in assay [1] and 0.9985 ± 0.0026 in assay [2]. The “fraction … with nuclear” value in the assay on HeLa RPS2-YFP reporter is 0.103 ± 0.067; with HeLa RPL29-GFP reporter it was 0.21 ± 0.065.
Regarding `Cc1cc(N)c2ccccc2[n+]1CCCCCCCCCC[n+]1c(C)cc(N)c2ccccc21` [Dequalinium chloride], the fraction in assay [1] was found to be 0.102 ± 0.15; in assay [2] it was 0.991 ± 0.015. The figures for the “fraction … with nuclear” value in the assay on HeLa RPS2-YFP reporter and in the assay on HeLa RPL29-GFP reporter were 0.117 ± 0.09 and 0.203 ± 0.07, respectively.
As for `Nc1c2c(nc3ccccc13)CCCC2` [Tacrine HCl], the fraction is 0.0977 ± 0.1 in assay [1] and 0.914 ± 0.15 in assay [2]. The “fraction … with nuclear” value with HeLa RPS2-YFP reporter was 0.111 ± 0.082; with HeLa RPL29-GFP reporter it was 0.303 ± 0.24.
On to `Nc1ccc(/N=N/c2ccccc2)c(N)n1` [Phenazopyridine HCl], for which the fraction in assay [1] was found to be 0.105 ± 0.15; in assay [2], 0.985 ± 0.027. Also, the “fraction … with nuclear” value was 0.148 ± 0.089 with HeLa RPS2-YFP reporter and 0.199 ± 0.066 with HeLa RPL29-GFP reporter.
Regarding `C[C@@H](O)[C@H]1C(=O)N2C(C(=O)O)=C(S[C@@H]3CN[C@H](C(=O)N(C)C)C3)[C@H](C)[C@H]12` [Meropenem], the fraction in assay [1] was determined as 0.0928 ± 0.085; in assay [2] it was 0.9984 ± 0.0027. In addition, the “fraction … with nuclear” value was 0.112 ± 0.066 in the assay with HeLa RPS2-YFP reporter and 0.202 ± 0.049 with HeLa RPL29-GFP reporter.
`CN(C)CCc1c[nH]c2ccc(Cn3cncn3)cc12` [Rizatriptan Benzoate (Maxalt)]: the fraction came out at 0.0972 ± 0.088 in assay [1] and 0.9982 ± 0.0031 in assay [2]. Further, the “fraction … with nuclear” value with HeLa RPS2-YFP reporter came to 0.11 ± 0.074; in the assay with HeLa RPL29-GFP reporter, 0.2 ± 0.074.
For the compound `NC[C@H]1O[C@H](O[C@H]2[C@H](O)[C@@H](O[C@H]3O[C@H](CO)[C@@H](O)[C@H](N)[C@H]3O)[C@H](N)C[C@@H]2N)[C@H](N)[C@@H](O)[C@@H]1O` [Bekanamycin], the values for the fraction in assay [1] and in assay [2] were 0.141 ± 0.17 and 0.9989 ± 0.0019, respectively. Moreover, the “fraction … with nuclear” value was 0.213 ± 0.16 in the assay with HeLa RPS2-YFP reporter and 0.319 ± 0.31 in the assay with HeLa RPL29-GFP reporter.
